Results taken from patent US12570650B2, “6-substituted pyridazine compounds as SMARCA2 and/or SMARCA4 degraders” (Aurigene Oncology Limited, priority 2020, dated 2026).
Some entries share one result that the patent states for a list of compounds.

Test system: SK-MEL-5 cells
Experiment: Anti proliferative activity, Cell Titer Glo assay, SK-MEL-5
Type: cell-based
Settings: retreatment Day 4, terminated day 8, CellTiter-Glo
Procedure: Example-P3: Determination of Anti Proliferative Activity of Compounds by Cell Titer Glo®(Promega) Assay
Cells were seeded into 96-well plates and the plate was incubated in 37 degrees incubator overnight. The next day, compounds were diluted 3-fold to cover 9-point concentration range in DMSO. Intermediate plate dilution was prepared in media followed with compound treatment in cells. Retreatment of cells with compound dilutions was performed on Day 4 and assay was terminated on day 8 for SK-MEL-5 cells using CellTiter-Glo and the plate was kept on orbital shaker for 20 minutes at RT. Assay was terminated on day 6 for RERF-LC-A1 without a compound retreatment. Luminescence signal was recorded on VICTOR^3 instrument. Percent inhibition of proliferation was calculated at each concentration and plotted against the compound concentration. EC50 value was calculated using GraphPad software.

SMILES: Cc1ncsc1-c1ccc([C@H](C)NC(=O)[C@@H]2C[C@@H](O)CN2C(=O)[C@@H](NC(=O)C(C)N2CCN(c3ccc(-c4cnnc(-c5ccccc5O)c4)cc3)CC2)C(C)(C)C)cc1 (single isomer, unassigned) [Compound 29]
- EC50: > 500 nM
